These are yes or no findings as the source states them, for the method shown.
Biological target: CBS-pair domain of CNNM2 (residues 429-584) (human) (UniProt Q9H8M5)
Test: condition: syringe typically 160 μM ligand, cell 16 μM protein; ITC; MicroCal VP-ITC, 20 °C, 29 injections of 10 μl; syringe typically 160 μM ligand, cell 16 μM protein (which protein was in the syringe is not told); PRL phosphorylated with 4'-MUP and desalted; single set of identical sites model; both purified

The chains behind the UniProt entries cited, without tags or fusion partners. Where a name states a change or a piece, a line headed by the entry shows the natural chain unless it says otherwise. A line that says so, or that is headed by a name, gives the form on record, which may keep a tag or linker. Residues count along the entry.
UniProt Q9H8M5, residues 429-584: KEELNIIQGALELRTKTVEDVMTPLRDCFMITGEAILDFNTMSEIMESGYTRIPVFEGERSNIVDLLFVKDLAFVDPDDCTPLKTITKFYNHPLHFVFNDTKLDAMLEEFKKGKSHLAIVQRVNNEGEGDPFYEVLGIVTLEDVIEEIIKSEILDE
cysteine-phosphorylated PRL3 D72A (residues 1-169) (O75365, form named): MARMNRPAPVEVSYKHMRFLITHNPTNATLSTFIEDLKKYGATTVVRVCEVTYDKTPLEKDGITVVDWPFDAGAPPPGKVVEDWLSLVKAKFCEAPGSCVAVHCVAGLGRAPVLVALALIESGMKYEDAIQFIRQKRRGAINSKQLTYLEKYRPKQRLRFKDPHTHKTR

- binding: no binding
Substance: cysteine-phosphorylated PRL3 D72A (residues 1-169) (from UniProt O75365 1-169) (enzyme)
